Experimental findings from the supplement of paper PMC4604168 (melanoma cell lines) are described below.

The list shows a part of the results. Repeats are few or missing, and single values can be far off.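 The apoptosis fraction was the count of cleaved-PARP antibody-stained nuclei relative to all DNA-stained nuclei, imaged in 1,536-well plates. Screening doses were set so most cells survived, and baseline and induced cleaved-PARP levels vary greatly across cell lines.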

The experiment relates to WM3619. The experiment can be described thus: cleaved PARP positive nuclei fraction relative to DMSO control; melanoma cells; higher = more apoptosis. The following applies: library dose: low library concentration; 72 h.
As to `C#Cc1cccc(Nc2ncnc3cc(OCCOC)c(OCCOC)cc23)c1` [erlotinib] + O=C(Nc1ccccc1)c1cc([N+](=O)[O-])ccc1Cl [GW9662] (first compound 0.8 µM, partner dose 2 µM), the “cleaved PARP positive nuclei fraction” value came to 82.2%.

Turning to `NC(=O)Nc1cc(-c2cccc(F)c2)sc1C(=O)N[C@H]1CCCNC1` + C[C@@H]1CCN(C(=O)CC#N)C[C@@H]1N(C)c1ncnc2[nH]ccc12 [CP690550] (first compound 0.02 µM, partner dose 1 µM), the “cleaved PARP positive nuclei fraction” value amounted to 136%.

`COCC[n+]1c2c(n(Cc3cnccn3)c1C)C(=O)c1ccccc1C2=O` + OCCn1cc(-c2cnc3nnn(Cc4ccc5ncccc5c4)c3n2)cn1 [PF04217903] (first compound 0.0004 µM, partner dose 1 µM): the “cleaved PARP positive nuclei fraction” value turned out to be 95.8%.

Consider `C=CCn1c(=O)c2cnc(Nc3ccc(N4CCN(C)CC4)cc3)nc2n1-c1cccc(C(C)(C)O)n1` + COc1ccc(-c2ccc3c(N4CCOCC4)nc(N4C[C@@H](C)O[C@@H](C)C4)nc3n2)cc1CO [KU0063794] (first compound 0.02 µM, partner dose 0.02 µM), for which the “cleaved PARP positive nuclei fraction” value worked out at 148%.

Take `Cc1cc(N2CCOCC2)cc2[nH]c(-c3c(NC[C@@H](O)c4cccc(Cl)c4)cc[nH]c3=O)nc12` + CCCCCCCCCCCC1=C(O)C(=O)C=C(O)C1=O [Embelin] (first compound 0.2 µM, partner dose 1.2 µM): the “cleaved PARP positive nuclei fraction” value turned out to be 81.6%.

With `C=CCNC1=C2C[C@@H](C)C[C@H](OC)[C@H](O)[C@@H](C)/C=C(\C)[C@H](OC(N)=O)[C@@H](OC)/C=C\C=C(/C)C(=O)NC(=CC1=O)C2=O` [Tanespimycin] + CN(NC(=O)CC(=O)NN(C)C(=S)c1ccccc1)C(=S)c1ccccc1 [STA4783] (first compound 0.002 µM, partner dose 0.006 µM), the “cleaved PARP positive nuclei fraction” value stood at 145%.

With `COCC[n+]1c2c(n(Cc3cnccn3)c1C)C(=O)c1ccccc1C2=O` + N#Cc1c(O)c2c(-c3ccc(-c4ccccc4O)cc3)csc2[nH]c1=O [A769662] (first compound 0.0004 µM, partner dose 2 µM), the “cleaved PARP positive nuclei fraction” value is 67.6%.

On to `C[C@@H]1CCN(C(=O)CC#N)C[C@@H]1N(C)c1ncnc2[nH]ccc12` + COc1ccc(COc2ccc(Cc3cnc(N)nc3N)cc2OC)cc1 [GW2580] (first compound 1 µM, partner dose 1 µM), for which the “cleaved PARP positive nuclei fraction” value worked out at 84.1%.

Regarding `Cn1c(Nc2ccc(C(F)(F)F)cc2)nc2cc(Oc3ccnc(-c4ncc(C(F)(F)F)[nH]4)c3)ccc21` + CCCCCCCCCCCC1=C(O)C(=O)C=C(O)C1=O [Embelin] (first compound 0.08 µM, partner dose 1.2 µM), the “cleaved PARP positive nuclei fraction” value came out at 136%.

For `C=CCn1c(=O)c2cnc(Nc3ccc(N4CCN(C)CC4)cc3)nc2n1-c1cccc(C(C)(C)O)n1` + CC(C)(C)c1cnc(CSc2cnc(NC(=O)C3CCNCC3)s2)o1 [SNS-032] (first compound 0.02 µM, partner dose 0.01 µM), the “cleaved PARP positive nuclei fraction” value came out at 124%.

As for `Cc1nc(Nc2ncc(C(=O)Nc3c(C)cccc3Cl)s2)cc(N2CCN(CCO)CC2)n1` [dasatanib] + CC(C)CCN1c2nc(Nc3cc(F)c(O)c(F)c3)ncc2N(C)C(=O)C1C [BID1870] (first compound 0.004 µM, partner dose 0.2 µM), the “cleaved PARP positive nuclei fraction” value came out at 94.2%.

Regarding `CC1(C)NC(=O)N(c2ccc([N+](=O)[O-])c(C(F)(F)F)c2)C1=O` [nilutamide] + CN(C)S(=O)(=O)c1ccc2c(c1)/C(=C/c1cc3c([nH]1)CCCC3)C(=O)N2 [SU6656] (first compound 1 µM, partner dose 0.4 µM), the “cleaved PARP positive nuclei fraction” value was 81.6%.

For `CC(=O)c1c(C)c2cnc(Nc3ccc(N4CCNCC4)cn3)nc2n(C2CCCC2)c1=O` [palbociclib] + O=C(O)c1ccc(-c2c[nH]c3ncc(-c4ccccc4)cc23)cc1C1CCCC1 [GSK650394] (first compound 0.04 µM, partner dose 0.16 µM), the “cleaved PARP positive nuclei fraction” value was determined as 109%.

Take `OCCn1cc(-c2cnc3nnn(Cc4ccc5ncccc5c4)c3n2)cn1` + Oc1cc(-c2nc(-c3ccccc3)[nH]c2-c2ccncc2)ccc1Cl [L779450] (first compound 1 µM, partner dose 0.2 µM): the “cleaved PARP positive nuclei fraction” value is 118%.

Consider `COc1cc(Nc2ncc(F)c(Nc3ccc4c(n3)NC(=O)C(C)(C)O4)n2)cc(OC)c1OC` [Tamatinib] + CN(NC(=O)CC(=O)NN(C)C(=S)c1ccccc1)C(=S)c1ccccc1 [STA4783] (first compound 0.4 µM, partner dose 0.006 µM), for which the “cleaved PARP positive nuclei fraction” value came out at 185%.
